These are yes or no findings as the source states them, for the method shown. In cells and extracts the contact can be indirect. Some binding calls cover weakened binding; strength is not graded here.

By UniProt entry, the sequences of proteins in these tests, tags left out. Residues count along the entry.
UniProt P9WMK7, residues 3-216: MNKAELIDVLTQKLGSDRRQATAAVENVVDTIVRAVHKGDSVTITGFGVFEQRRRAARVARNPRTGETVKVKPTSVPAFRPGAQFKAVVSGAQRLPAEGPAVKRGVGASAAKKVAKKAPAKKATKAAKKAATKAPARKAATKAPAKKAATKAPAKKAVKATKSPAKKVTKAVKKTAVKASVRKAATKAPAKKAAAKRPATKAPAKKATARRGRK
UniProt P9WLL9, residues 2-407: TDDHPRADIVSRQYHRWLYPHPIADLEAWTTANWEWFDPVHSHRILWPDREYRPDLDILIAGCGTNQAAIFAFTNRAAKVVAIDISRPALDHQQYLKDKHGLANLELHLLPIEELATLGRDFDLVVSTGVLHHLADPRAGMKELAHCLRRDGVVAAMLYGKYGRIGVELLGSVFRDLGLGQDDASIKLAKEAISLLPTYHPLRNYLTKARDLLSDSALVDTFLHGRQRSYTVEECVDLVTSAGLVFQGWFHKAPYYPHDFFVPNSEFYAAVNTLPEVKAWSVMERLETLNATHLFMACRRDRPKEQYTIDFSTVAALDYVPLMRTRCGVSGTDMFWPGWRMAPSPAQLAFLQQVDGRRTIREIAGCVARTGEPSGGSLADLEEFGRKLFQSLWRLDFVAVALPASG

For the experiment, the target named is Mtb histone-like protein HU (MtHU) (Mycobacterium tuberculosis) (UniProt P9WMK7). Put plainly: pull-down; MtHU as bait; no further details in the text shown (Supplementary Fig. 1a).

With “Rv2067c (prey found in the MtHU pulldown) (from UniProt P9WLL9 2-407) (enzyme)”, the binding result is “binds”.

Source of the values: PMC10739865, “The Mycobacterium tuberculosis methyltransferase Rv2067c manipulates host epigenetic programming to promote its own survival” (Nature Communications, 2023).
